These are yes or no findings as the source states them, for the method shown. Binding can be weak; no strength is given. For some assays here: In cells and extracts the contact can be indirect.

Amino acid sequences for entries named in this document (tags omitted). A change or cut given only in a name is not applied to a line headed by its entry.
UniProt Q9T061: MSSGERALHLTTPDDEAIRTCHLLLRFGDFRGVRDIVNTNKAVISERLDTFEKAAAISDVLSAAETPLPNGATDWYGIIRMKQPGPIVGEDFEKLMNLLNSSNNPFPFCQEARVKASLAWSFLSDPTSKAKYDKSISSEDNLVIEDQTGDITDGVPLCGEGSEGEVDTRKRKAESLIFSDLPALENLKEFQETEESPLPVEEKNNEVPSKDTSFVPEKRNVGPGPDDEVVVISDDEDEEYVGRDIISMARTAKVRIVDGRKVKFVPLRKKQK
UniProt Q9LXB9: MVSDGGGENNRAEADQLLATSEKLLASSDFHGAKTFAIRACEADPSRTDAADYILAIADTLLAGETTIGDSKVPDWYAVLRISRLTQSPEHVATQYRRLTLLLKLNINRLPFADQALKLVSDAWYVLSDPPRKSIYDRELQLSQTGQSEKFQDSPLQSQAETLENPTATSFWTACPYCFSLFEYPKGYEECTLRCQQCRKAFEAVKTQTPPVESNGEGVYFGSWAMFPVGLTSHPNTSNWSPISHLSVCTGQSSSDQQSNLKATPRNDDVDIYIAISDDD

One test has as its target WUS-YFPn (Arabidopsis) (UniProt Q9SB92). The test can be described thus: split reporter; BiFC with YFPn and YFPc fusions in Nicotiana benthamiana leaf epidermal cells, Agrobacterium infiltration, with Coilin:RFP as nuclear marker; confocal microscopy.
The target in another test is T1, MBP:WUS (Arabidopsis thaliana, UniProt Q9SB92 1-292).
T1 sequence: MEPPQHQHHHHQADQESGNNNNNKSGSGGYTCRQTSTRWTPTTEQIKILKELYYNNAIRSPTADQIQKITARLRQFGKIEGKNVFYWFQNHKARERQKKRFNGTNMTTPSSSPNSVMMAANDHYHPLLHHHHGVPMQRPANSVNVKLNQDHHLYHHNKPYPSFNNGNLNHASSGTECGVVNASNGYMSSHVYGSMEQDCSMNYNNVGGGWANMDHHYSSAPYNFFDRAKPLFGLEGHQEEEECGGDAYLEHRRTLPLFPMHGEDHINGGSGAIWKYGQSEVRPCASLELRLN
Kind of test: native gel or EMSA; MBP:WUS and MBP:SDJ1/SDJ3/At5g09540 with Texas Red-labelled WUS promoter probe (TAAT motif); 10 mM HEPES pH 7.8, 20 mM KCl, 1 mM MgCl2, 22 °C, 30 min; 8% polyacrylamide gel; both purified. Background: A gel shift assay detects complexes by their altered migration in electrophoresis.

For the substance At4g11930-YFPc (from UniProt Q9T061), in the test with WUS-YFPn (Arabidopsis), the binding entry is recorded as “binds”.
With MBP-At5g09540 (from UniProt Q9LXB9), the binding entry with MBP:WUS was “binds”.

(Values after publication PMC7827474, “DnaJ Proteins Regulate WUS Expression in Shoot Apical Meristem of Arabidopsis”.)
